# Some entries share one result that the patent states for a list of compounds. Bridge positions count the residues as written; N and C are the ends. Square brackets hold non-standard residues; d marks the D form. Peptide text beside a SMILES is read from it. Nle = CCCC[C@H](N)C(=O)O
# Amino acid sequences for entries named in this document (tags omitted).
# UniProt P22001, whole entry: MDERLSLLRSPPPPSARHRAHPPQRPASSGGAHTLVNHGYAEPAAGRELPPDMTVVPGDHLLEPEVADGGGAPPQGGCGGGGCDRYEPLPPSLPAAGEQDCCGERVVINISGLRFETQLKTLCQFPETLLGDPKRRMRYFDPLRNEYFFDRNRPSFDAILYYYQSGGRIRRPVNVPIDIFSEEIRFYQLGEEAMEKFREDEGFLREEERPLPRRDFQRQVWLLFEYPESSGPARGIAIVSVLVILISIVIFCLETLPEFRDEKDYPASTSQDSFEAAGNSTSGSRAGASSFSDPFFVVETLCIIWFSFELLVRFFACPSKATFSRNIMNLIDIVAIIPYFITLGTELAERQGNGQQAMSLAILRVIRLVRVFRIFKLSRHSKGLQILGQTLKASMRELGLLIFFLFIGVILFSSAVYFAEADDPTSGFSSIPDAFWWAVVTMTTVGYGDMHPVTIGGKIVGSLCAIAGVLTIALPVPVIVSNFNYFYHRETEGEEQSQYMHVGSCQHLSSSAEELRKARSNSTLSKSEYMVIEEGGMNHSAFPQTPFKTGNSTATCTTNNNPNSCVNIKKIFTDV
# Molecular target: T1, human Kv1.3 voltage-gated K+ channel (Homo sapiens, UniProt P22001)
# T1 construct: host or cells: CHO-DUKX
# Assay type: cell-based
compound,measurement,value
"CCCC[C@@H]1NC(=O)[C@@H]2CSSC[C@H](NC(=O)[C@H](CCCNC(=N)N)NC(=O)[C@H](CCCC)NC(=O)[C@H](CC(=O)O)NC(=O)[C@H](CCCC)NC(=O)[C@@H](N)CC(N)=O)C(=O)N[C@@H](CO)C(=O)N[C@@H](C)C(=O)N[C@@H](CO)C(=O)N[C@@H](C(C)C)C(=O)N[C@@H](CCC(=O)O)C(=O)N[C@H]3CSSC[C@H](NC(=O)[C@H](CCCCN)NC(=O)[C@H](CCCCN)NC(=O)[C@H](CC(N)=O)NC1=O)C(=O)N[C@@H](CCCCN)C(=O)N[C@H](C(=O)N[C@@H](Cc1ccc(O)cc1)C(=O)N1CCC[C@H]1C(=O)N[C@@H](CCCNC(=N)N)C(N)=O)CSSC[C@H](NC(=O)[C@H](CCCCN)NC(=O)[C@H](CCC(N)=O)NC(=O)[C@H](CCC(N)=O)NC3=O)C(=O)N[C@@H](CC(C)C)C(=O)N[C@@H](CCCCN)C(=O)N[C@@H](C)C(=O)N[C@@H]([C@@H](C)CC)C(=O)NCC(=O)N[C@@H](CO)C(=O)N[C@@H]([C@@H](C)CC)C(=O)N[C@@H](Cc1ccccc1)C(=O)NCC(=O)N[C@@H](CCCCN)C(=O)N2 [Compound 44] (H-N[Nle]D[Nle]RCSASVECQQKCLKAIGSIFGKC[Nle]NKKCKCYPR-NH2; disulfide 6-27, 12-32, 16-34)",IC50,≤ 0.15 nM
"CC[C@H](C)[C@@H]1NC(=O)[C@H](C)NC(=O)[C@H](CCCCN)NC(=O)[C@H](Cc2ccc(O)cc2)NC(=O)[C@@H]2CSSC[C@@H](C(=O)N[C@@H](Cc3ccc(O)cc3)C(=O)N3CCC[C@H]3C(=O)N[C@@H](CCCNC(=N)N)C(N)=O)NC(=O)[C@H](CCCCN)NC(=O)[C@@H]3CSSC[C@H](NC(=O)[C@H](CCC(=O)O)NC(=O)[C@H](C(C)C)NC(=O)[C@H](CO)NC(=O)[C@H](C)NC(=O)[C@H](CO)NC(=O)[C@@H](NC(=O)[C@H](CCCNC(=N)N)NC(=O)[C@H](CCSC)NC(=O)[C@H](CC(=O)O)NC(=O)[C@H](CCSC)NC(=O)[C@@H](N)CC(N)=O)CSSC[C@H](NC(=O)[C@H](CCCCN)NC(=O)CNC(=O)[C@H](Cc4ccccc4)NC(=O)[C@H]([C@@H](C)CC)NC(=O)[C@H](CO)NC(=O)CNC1=O)C(=O)N[C@@H](CCSC)C(=O)N[C@@H](CC(N)=O)C(=O)N[C@@H](CCCCN)C(=O)N[C@@H](CCCCN)C(=O)N3)C(=O)N[C@@H](CCCCN)C(=O)N[C@@H](CCC(N)=O)C(=O)N[C@@H](CCCCN)C(=O)N2 [Compound 50] (H-NMDMRCSASVECKQKCYKAIGSIFGKCMNKKCKCYPR-NH2; disulfide 6-27, 12-32, 16-34)",IC50,≤ 0.3 nM
"CC[C@H](C)[C@@H]1NC(=O)[C@H](C)NC(=O)[C@H](CCCCN)NC(=O)[C@H](CCCNC(=N)N)NC(=O)[C@@H]2CSSC[C@@H](C(=O)N[C@@H](Cc3ccc(O)cc3)C(=O)N3CCC[C@H]3C(=O)N[C@@H](CCCNC(=N)N)C(N)=O)NC(=O)[C@H](CCCCN)NC(=O)[C@@H]3CSSC[C@H](NC(=O)[C@H](CCC(=O)O)NC(=O)[C@H](C(C)C)NC(=O)[C@H](CO)NC(=O)[C@H](C)NC(=O)[C@H](CO)NC(=O)[C@@H](NC(=O)[C@H](CCCNC(=N)N)NC(=O)[C@H](CCSC)NC(=O)[C@H](CC(=O)O)NC(=O)[C@H](CCSC)NC(=O)[C@@H](N)CC(N)=O)CSSC[C@H](NC(=O)[C@H](CCCCN)NC(=O)CNC(=O)[C@H](Cc4ccccc4)NC(=O)[C@H]([C@@H](C)CC)NC(=O)[C@H](CO)NC(=O)CNC1=O)C(=O)N[C@@H](CCSC)C(=O)N[C@@H](CC(N)=O)C(=O)N[C@@H](CCCCN)C(=O)N[C@@H](CCCCN)C(=O)N3)C(=O)N[C@@H](CCCCN)C(=O)N[C@@H](CCC(N)=O)C(=O)N[C@@H](CCCCN)C(=O)N2 [Compound 51] (H-NMDMRCSASVECKQKCRKAIGSIFGKCMNKKCKCYPR-NH2; disulfide 6-27, 12-32, 16-34)",IC50,≤ 0.15 nM
"CC[C@H](C)[C@@H]1NC(=O)[C@H](C)NC(=O)[C@H](C)NC(=O)[C@H](CC(C)C)NC(=O)[C@@H]2CSSC[C@@H](C(=O)N[C@@H](Cc3ccc(O)cc3)C(=O)N3CCC[C@H]3C(=O)N[C@@H](CCCNC(=N)N)C(N)=O)NC(=O)[C@H](CCCCN)NC(=O)[C@@H]3CSSC[C@H](NC(=O)[C@H](CCC(=O)O)NC(=O)[C@H](C(C)C)NC(=O)[C@H](CO)NC(=O)[C@H](C)NC(=O)[C@H](CO)NC(=O)[C@@H](NC(=O)[C@H](CCCNC(=N)N)NC(=O)[C@H](CCSC)NC(=O)[C@H](CC(=O)O)NC(=O)[C@H](CCSC)NC(=O)[C@@H](N)CC(N)=O)CSSC[C@H](NC(=O)[C@H](CCCCN)NC(=O)CNC(=O)[C@H](Cc4ccccc4)NC(=O)[C@H]([C@@H](C)CC)NC(=O)[C@H](CO)NC(=O)CNC1=O)C(=O)N[C@@H](CCSC)C(=O)N[C@@H](CC(N)=O)C(=O)N[C@@H](CCCCN)C(=O)N[C@@H](CCCCN)C(=O)N3)C(=O)N[C@@H](CCCCN)C(=O)N[C@@H](CCC(N)=O)C(=O)N[C@@H](CCCCN)C(=O)N2 [Compound 52] (H-NMDMRCSASVECKQKCLAAIGSIFGKCMNKKCKCYPR-NH2; disulfide 6-27, 12-32, 16-34)",IC50,≤ 0.15 nM
"CC[C@H](C)[C@@H]1NC(=O)[C@H](Cc2ccc(O)cc2)NC(=O)[C@H](CCCCN)NC(=O)[C@H](CC(C)C)NC(=O)[C@@H]2CSSC[C@@H](C(=O)N[C@@H](Cc3ccc(O)cc3)C(=O)N3CCC[C@H]3C(=O)N[C@@H](CCCNC(=N)N)C(N)=O)NC(=O)[C@H](CCCCN)NC(=O)[C@@H]3CSSC[C@H](NC(=O)[C@H](CCC(=O)O)NC(=O)[C@H](C(C)C)NC(=O)[C@H](CO)NC(=O)[C@H](C)NC(=O)[C@H](CO)NC(=O)[C@@H](NC(=O)[C@H](CCCNC(=N)N)NC(=O)[C@H](CCSC)NC(=O)[C@H](CC(=O)O)NC(=O)[C@H](CCSC)NC(=O)[C@@H](N)CC(N)=O)CSSC[C@H](NC(=O)[C@H](CCCCN)NC(=O)CNC(=O)[C@H](Cc4ccccc4)NC(=O)[C@H]([C@@H](C)CC)NC(=O)[C@H](CO)NC(=O)CNC1=O)C(=O)N[C@@H](CCSC)C(=O)N[C@@H](CC(N)=O)C(=O)N[C@@H](CCCCN)C(=O)N[C@@H](CCCCN)C(=O)N3)C(=O)N[C@@H](CCCCN)C(=O)N[C@@H](CCC(N)=O)C(=O)N[C@@H](CCCCN)C(=O)N2 [Compound 55] (H-NMDMRCSASVECKQKCLKYIGSIFGKCMNKKCKCYPR-NH2; disulfide 6-27, 12-32, 16-34)",IC50,≤ 0.15 nM
"CC[C@H](C)[C@@H]1NC(=O)[C@H](CCCCN)NC(=O)[C@H](CC(C)C)NC(=O)[C@@H]2CSSC[C@@H](C(=O)N[C@@H](Cc3ccc(O)cc3)C(=O)N3CCC[C@H]3C(=O)N[C@@H](CCCNC(=N)N)C(N)=O)NC(=O)[C@H](CCCCN)NC(=O)[C@@H]3CSSC[C@H](NC(=O)[C@H](CCC(=O)O)NC(=O)[C@H](C(C)C)NC(=O)[C@H](CO)NC(=O)[C@H](C)NC(=O)[C@H](CO)NC(=O)[C@@H](NC(=O)[C@H](CCCNC(=N)N)NC(=O)[C@H](CCSC)NC(=O)[C@H](CC(=O)O)NC(=O)[C@H](CCSC)NC(=O)[C@@H](N)CC(N)=O)CSSC[C@H](NC(=O)[C@H](CCCCN)NC(=O)CNC(=O)[C@H](Cc4ccccc4)NC(=O)[C@H]([C@@H](C)CC)NC(=O)[C@H](CO)NC(=O)CNC1=O)C(=O)N[C@@H](CCSC)C(=O)N[C@@H](CC(N)=O)C(=O)N[C@@H](CCCCN)C(=O)N[C@@H](CCCCN)C(=O)N3)C(=O)N[C@@H](CCCCN)C(=O)N[C@@H](CCC(N)=O)C(=O)N[C@@H](CCCCN)C(=O)N2 [Compound 57] (H-NMDMRCSASVECKQKCLKIGSIFGKCMNKKCKCYPR-NH2; disulfide 6-26, 12-31, 16-33)",IC50,≤ 0.15 nM
"CC[C@H](C)[C@@H]1NC(=O)[C@H](CO)NC(=O)CNC(=O)[C@H](CCC(=O)O)NC(=O)[C@H](C)NC(=O)[C@H](CCCCN)NC(=O)[C@H](CC(C)C)NC(=O)[C@@H]2CSSC[C@@H](C(=O)N[C@@H](Cc3ccc(O)cc3)C(=O)N3CCC[C@H]3C(=O)N[C@@H](CCCNC(=N)N)C(N)=O)NC(=O)[C@H](CCCCN)NC(=O)[C@@H]3CSSC[C@H](NC(=O)[C@H](CCC(=O)O)NC(=O)[C@H](C(C)C)NC(=O)[C@H](CO)NC(=O)[C@H](C)NC(=O)[C@H](CO)NC(=O)[C@@H](NC(=O)[C@H](CCCNC(=N)N)NC(=O)[C@H](CCSC)NC(=O)[C@H](CC(=O)O)NC(=O)[C@H](CCSC)NC(=O)[C@@H](N)CC(N)=O)CSSC[C@H](NC(=O)[C@H](CCCCN)NC(=O)CNC(=O)[C@H](Cc4ccccc4)NC1=O)C(=O)N[C@@H](CCSC)C(=O)N[C@@H](CC(N)=O)C(=O)N[C@@H](CCCCN)C(=O)N[C@@H](CCCCN)C(=O)N3)C(=O)N[C@@H](CCCCN)C(=O)N[C@@H](CCC(N)=O)C(=O)N[C@@H](CCCCN)C(=O)N2 [Compound 59] (H-NMDMRCSASVECKQKCLKAEGSIFGKCMNKKCKCYPR-NH2; disulfide 6-27, 12-32, 16-34)",IC50,≤ 0.15 nM
"CC[C@H](C)[C@@H]1NC(=O)[C@H](CO)NC(=O)CNC(=O)[C@H](CCCNC(=N)N)NC(=O)[C@H](C)NC(=O)[C@H](CCCCN)NC(=O)[C@H](CC(C)C)NC(=O)[C@@H]2CSSC[C@@H](C(=O)N[C@@H](Cc3ccc(O)cc3)C(=O)N3CCC[C@H]3C(=O)N[C@@H](CCCNC(=N)N)C(N)=O)NC(=O)[C@H](CCCCN)NC(=O)[C@@H]3CSSC[C@H](NC(=O)[C@H](CCC(=O)O)NC(=O)[C@H](C(C)C)NC(=O)[C@H](CO)NC(=O)[C@H](C)NC(=O)[C@H](CO)NC(=O)[C@@H](NC(=O)[C@H](CCCNC(=N)N)NC(=O)[C@H](CCSC)NC(=O)[C@H](CC(=O)O)NC(=O)[C@H](CCSC)NC(=O)[C@@H](N)CC(N)=O)CSSC[C@H](NC(=O)[C@H](CCCCN)NC(=O)CNC(=O)[C@H](Cc4ccccc4)NC1=O)C(=O)N[C@@H](CCSC)C(=O)N[C@@H](CC(N)=O)C(=O)N[C@@H](CCCCN)C(=O)N[C@@H](CCCCN)C(=O)N3)C(=O)N[C@@H](CCCCN)C(=O)N[C@@H](CCC(N)=O)C(=O)N[C@@H](CCCCN)C(=O)N2 [Compound 60] (H-NMDMRCSASVECKQKCLKARGSIFGKCMNKKCKCYPR-NH2; disulfide 6-27, 12-32, 16-34)",IC50,≤ 0.15 nM
